Reference: the supplement of paper PMC12595434, “Development of retinoid nuclear receptor pathway antagonists through targeting aldehyde dehydrogenase 1A3” (iScience, 2025)
The list shows a part of the results. Single values of this set are uncertain.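 Tm was set to 64 °C where no melting was found, and many curves are irregular.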

Protein sequences, listed by entry. Tags and fused reporters are not part of them. Lines headed by an entry give the natural chain unless they say otherwise; changes in a name come on top.
UniProt P26045: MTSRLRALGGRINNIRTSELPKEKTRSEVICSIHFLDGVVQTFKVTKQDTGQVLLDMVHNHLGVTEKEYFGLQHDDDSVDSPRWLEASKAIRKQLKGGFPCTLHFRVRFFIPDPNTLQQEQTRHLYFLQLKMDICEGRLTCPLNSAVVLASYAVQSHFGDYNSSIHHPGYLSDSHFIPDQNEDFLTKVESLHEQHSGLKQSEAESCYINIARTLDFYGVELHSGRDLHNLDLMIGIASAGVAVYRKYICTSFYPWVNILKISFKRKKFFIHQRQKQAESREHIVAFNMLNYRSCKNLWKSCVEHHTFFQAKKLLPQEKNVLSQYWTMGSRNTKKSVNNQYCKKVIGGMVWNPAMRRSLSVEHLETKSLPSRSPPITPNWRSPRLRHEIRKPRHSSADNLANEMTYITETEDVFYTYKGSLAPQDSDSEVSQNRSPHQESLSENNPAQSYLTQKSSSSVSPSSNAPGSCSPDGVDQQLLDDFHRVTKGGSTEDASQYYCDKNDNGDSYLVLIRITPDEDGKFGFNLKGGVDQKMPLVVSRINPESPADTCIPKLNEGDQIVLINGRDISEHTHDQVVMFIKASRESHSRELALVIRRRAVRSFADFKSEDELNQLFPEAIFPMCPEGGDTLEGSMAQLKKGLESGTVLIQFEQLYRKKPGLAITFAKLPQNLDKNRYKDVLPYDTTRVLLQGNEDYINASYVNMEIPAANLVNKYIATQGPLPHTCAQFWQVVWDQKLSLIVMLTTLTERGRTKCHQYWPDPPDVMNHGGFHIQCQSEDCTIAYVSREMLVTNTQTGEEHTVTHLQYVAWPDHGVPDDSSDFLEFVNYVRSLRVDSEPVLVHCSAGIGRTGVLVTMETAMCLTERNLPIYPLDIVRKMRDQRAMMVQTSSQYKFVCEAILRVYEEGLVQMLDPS
UniProt P28331, whole entry: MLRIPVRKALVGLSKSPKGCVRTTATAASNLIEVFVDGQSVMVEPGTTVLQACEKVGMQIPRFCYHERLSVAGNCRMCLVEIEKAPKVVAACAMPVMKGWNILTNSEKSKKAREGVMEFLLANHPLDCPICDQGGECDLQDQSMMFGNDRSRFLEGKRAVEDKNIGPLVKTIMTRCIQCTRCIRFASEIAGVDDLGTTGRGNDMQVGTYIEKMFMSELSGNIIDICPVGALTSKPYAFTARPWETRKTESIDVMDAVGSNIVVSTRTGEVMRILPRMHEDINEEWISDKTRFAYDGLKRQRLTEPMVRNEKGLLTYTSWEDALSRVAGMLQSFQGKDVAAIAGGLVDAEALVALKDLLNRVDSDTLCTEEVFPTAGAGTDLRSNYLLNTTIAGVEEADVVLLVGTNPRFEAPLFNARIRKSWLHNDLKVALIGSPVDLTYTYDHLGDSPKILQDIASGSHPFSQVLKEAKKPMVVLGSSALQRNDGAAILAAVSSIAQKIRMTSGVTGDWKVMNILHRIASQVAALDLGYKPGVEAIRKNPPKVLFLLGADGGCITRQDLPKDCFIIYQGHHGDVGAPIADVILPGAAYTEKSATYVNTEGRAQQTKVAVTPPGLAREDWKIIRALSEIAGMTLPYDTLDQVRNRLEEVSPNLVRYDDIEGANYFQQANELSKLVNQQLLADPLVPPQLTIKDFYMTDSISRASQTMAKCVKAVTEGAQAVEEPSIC
UniProt P35998: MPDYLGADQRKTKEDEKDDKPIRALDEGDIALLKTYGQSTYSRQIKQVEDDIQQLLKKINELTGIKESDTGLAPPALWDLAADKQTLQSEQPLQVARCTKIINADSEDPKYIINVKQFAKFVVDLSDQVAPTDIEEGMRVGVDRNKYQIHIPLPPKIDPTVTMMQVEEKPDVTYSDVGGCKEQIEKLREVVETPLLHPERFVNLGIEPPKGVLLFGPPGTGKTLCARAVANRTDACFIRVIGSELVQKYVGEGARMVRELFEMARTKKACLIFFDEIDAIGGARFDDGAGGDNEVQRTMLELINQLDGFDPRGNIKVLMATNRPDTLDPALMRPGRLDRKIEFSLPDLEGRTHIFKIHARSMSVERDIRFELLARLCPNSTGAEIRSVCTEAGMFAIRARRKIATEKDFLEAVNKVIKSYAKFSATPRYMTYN
UniProt P21127: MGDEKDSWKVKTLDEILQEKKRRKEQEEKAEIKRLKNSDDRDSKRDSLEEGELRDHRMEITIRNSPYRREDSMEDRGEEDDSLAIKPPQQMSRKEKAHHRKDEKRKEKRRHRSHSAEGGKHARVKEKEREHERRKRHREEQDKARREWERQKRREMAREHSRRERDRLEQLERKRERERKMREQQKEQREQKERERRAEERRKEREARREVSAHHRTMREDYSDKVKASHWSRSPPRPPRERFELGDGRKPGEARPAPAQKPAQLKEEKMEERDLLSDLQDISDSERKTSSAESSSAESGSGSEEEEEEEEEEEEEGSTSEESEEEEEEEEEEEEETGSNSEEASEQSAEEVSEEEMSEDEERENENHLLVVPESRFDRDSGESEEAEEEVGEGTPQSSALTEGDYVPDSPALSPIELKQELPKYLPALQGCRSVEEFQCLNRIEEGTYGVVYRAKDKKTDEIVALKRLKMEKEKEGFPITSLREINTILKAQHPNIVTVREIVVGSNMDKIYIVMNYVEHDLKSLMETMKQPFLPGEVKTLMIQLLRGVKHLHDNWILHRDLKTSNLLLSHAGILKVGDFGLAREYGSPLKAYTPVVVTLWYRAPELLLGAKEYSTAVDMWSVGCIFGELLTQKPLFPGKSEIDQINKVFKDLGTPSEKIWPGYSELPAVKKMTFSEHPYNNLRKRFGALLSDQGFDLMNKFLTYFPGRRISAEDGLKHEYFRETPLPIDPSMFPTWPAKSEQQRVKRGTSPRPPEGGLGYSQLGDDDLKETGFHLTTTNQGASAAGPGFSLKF
UniProt P24752: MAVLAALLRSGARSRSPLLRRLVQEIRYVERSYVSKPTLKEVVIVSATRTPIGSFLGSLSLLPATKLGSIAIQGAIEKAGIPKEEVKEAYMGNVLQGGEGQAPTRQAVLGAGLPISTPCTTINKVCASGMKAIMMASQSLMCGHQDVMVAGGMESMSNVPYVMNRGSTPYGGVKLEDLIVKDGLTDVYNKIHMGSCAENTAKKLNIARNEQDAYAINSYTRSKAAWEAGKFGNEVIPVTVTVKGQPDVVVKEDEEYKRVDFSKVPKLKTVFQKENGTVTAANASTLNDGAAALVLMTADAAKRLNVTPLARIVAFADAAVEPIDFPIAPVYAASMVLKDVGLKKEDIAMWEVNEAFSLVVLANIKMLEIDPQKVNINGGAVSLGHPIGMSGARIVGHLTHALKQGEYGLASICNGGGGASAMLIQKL
UniProt P22033: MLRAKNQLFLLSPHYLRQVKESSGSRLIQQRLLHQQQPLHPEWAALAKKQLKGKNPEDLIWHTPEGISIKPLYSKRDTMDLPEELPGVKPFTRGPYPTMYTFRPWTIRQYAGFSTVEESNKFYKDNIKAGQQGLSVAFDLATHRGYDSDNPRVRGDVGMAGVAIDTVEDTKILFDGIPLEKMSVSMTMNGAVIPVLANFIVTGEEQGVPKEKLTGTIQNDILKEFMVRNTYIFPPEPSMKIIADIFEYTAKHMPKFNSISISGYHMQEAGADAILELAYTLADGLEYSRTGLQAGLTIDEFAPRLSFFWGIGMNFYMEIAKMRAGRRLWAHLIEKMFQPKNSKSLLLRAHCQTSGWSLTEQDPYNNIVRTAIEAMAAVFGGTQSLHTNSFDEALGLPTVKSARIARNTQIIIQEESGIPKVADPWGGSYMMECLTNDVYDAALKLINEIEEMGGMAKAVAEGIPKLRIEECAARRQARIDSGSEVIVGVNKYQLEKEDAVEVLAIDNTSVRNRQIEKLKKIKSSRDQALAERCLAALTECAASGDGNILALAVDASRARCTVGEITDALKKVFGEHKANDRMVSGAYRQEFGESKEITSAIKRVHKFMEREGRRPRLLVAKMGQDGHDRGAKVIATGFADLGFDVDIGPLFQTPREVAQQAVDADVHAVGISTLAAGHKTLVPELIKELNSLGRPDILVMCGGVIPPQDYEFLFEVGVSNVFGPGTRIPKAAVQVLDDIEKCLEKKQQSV
UniProt P21283, whole entry: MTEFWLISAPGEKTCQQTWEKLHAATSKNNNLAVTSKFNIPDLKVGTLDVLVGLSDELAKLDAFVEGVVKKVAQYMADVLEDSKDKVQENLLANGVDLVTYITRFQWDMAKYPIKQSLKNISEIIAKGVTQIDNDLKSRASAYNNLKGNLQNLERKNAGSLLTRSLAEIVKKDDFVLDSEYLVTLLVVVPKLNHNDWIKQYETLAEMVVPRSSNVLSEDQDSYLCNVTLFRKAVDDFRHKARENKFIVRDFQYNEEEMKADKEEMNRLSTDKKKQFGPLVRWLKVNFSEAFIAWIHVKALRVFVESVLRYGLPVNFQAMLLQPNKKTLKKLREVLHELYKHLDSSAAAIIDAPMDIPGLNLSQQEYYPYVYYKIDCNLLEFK
UniProt P27797, whole entry: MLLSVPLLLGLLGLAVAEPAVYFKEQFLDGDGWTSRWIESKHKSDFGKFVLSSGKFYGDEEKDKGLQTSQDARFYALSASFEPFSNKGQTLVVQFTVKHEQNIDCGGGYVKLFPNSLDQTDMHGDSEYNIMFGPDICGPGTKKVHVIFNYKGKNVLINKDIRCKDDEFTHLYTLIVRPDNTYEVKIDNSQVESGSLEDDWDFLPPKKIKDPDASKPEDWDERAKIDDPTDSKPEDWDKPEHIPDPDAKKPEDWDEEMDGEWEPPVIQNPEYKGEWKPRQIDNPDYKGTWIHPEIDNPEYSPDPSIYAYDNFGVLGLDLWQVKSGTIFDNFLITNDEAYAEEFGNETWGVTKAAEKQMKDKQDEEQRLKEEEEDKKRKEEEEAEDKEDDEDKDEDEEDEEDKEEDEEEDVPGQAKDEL
UniProt P24386: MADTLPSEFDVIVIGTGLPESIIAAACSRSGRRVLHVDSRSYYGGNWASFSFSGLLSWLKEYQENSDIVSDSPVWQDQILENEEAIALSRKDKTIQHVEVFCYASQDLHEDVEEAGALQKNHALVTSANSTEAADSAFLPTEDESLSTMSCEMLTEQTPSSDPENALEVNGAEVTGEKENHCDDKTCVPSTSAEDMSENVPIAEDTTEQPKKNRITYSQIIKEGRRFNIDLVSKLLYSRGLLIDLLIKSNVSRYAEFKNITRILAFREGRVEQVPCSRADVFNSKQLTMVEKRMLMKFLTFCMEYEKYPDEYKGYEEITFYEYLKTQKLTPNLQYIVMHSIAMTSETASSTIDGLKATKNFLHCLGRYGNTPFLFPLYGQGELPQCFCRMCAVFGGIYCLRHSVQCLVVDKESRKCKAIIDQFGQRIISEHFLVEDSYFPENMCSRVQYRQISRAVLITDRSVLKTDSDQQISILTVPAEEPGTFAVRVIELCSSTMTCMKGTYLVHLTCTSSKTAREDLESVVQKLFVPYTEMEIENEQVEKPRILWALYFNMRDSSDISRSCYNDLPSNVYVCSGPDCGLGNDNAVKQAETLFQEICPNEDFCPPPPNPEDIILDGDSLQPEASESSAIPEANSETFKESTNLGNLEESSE
UniProt P30084: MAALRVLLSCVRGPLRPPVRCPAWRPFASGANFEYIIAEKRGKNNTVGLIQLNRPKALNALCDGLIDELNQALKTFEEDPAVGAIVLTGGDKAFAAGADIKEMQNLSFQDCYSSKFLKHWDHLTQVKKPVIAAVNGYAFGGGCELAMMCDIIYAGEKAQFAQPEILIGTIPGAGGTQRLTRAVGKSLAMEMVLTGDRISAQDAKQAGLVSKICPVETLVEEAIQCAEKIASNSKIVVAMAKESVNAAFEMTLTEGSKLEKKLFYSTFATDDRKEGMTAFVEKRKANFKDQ
UniProt P35914: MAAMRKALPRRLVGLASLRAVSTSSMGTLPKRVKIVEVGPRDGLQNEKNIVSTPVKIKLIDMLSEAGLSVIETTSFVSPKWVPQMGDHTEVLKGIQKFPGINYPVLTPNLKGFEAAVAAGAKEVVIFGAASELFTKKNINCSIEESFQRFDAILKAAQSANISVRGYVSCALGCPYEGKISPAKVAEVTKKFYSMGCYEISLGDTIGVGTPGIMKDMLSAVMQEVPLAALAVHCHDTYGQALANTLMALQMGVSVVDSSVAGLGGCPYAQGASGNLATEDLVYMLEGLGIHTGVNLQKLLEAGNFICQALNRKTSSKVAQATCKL
UniProt P22695: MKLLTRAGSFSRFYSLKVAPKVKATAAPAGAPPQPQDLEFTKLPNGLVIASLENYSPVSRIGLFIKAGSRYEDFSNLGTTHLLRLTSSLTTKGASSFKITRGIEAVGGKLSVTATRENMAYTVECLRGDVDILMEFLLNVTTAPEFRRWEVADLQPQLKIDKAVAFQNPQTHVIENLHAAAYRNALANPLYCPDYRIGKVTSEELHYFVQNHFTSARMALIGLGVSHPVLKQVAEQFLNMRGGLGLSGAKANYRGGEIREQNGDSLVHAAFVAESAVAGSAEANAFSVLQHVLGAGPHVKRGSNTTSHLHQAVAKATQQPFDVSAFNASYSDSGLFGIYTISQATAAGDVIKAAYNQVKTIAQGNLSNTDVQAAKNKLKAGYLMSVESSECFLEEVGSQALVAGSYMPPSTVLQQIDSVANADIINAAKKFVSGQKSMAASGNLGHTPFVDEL

Compound: CCc1cnccc1C(=O)Nc1cc2c(cc1F)NC(=O)CC2
Experiment: melting temperature shift (DMSO Tm minus MBE1-treated Tm) in cellular thermal proteome profiling; higher = less thermal stabilization by MBE1 (negative = stabilized by MBE1)
Conditions: A375

Target	melting temperature shift (MBE1 concentration: 100 nM) [°C]	melting temperature shift (MBE1 concentration: 1 uM) [°C]
PTPN3 (UniProt P26045)	-0.325	-0.0329
NDUFS1 (UniProt P28331)	0.641	0.525
PSMC2 (UniProt P35998)	-1.08	0.543
POLR2I (UniProt P36954)	-0.749	1.34
CD70 (UniProt P32970)	-3.44	-2.84
UniProt P21127	-0.32	-0.167
ACAT1 (UniProt P24752)	-1.2	0.226
LONP1 (UniProt P36776)	-0.806	0.581
MUT (UniProt P22033)	0.556	0.598
ATP6V1C1 (UniProt P21283)	0.397	0.0305
IVD (UniProt P26440)	-0.825	0.456
CALR (UniProt P27797)	-0.931	0.282
UniProt P31629	0.0188	-2.57
MSN (UniProt P26038)	-0.329	-0.0613
CHM (UniProt P24386)	-0.194	-0.288
MCM3 (UniProt P25205)	-0.805	0.299
SREBF1 (UniProt P36956)	-1.2	-1.51
ECHS1 (UniProt P30084)	-0.429	-0.443
AKT1 (UniProt P31749)	0.727	-0.0122
PGM1 (UniProt P36871)	-1.25	-1.15
HMGCL (UniProt P35914)	0.651	0.541
TNFAIP3 (UniProt P21580)	-0.376	0.295
UQCRC2 (UniProt P22695)	-0.971	-1.12
ATP5A1 (UniProt P25705)	-2.17	-2.73
GTF2F1 (UniProt P35269)	-0.952	-0.11

Reprinted from the results shown (2 entries):
Target	melting temperature shift (MBE1 concentration: 100 nM) [°C]	melting temperature shift (MBE1 concentration: 1 uM) [°C]
CALR (UniProt P27797)	-0.931	0.282
UniProt P31629	0.0188	-2.57
